The values that follow are results of earlier work, collected in US4990617A, “N-oxide prodrug derivatives of 3-hydroxy morphinans and partial morphinans and derivatives” (E. I. Du Pont de Nemours and Company, priority 1989, dated 1991).

Molecules are shown by their SMILES.

The conditions of this series: guinea pigs administered morphine sulfate; literature; cited from earlier work.

Turning to `CN1CC[C@]23c4c5ccc(O)c4O[C@H]2[C@@H](O)C=C[C@H]3[C@H]1C5.O=S(=O)(O)O` [morphine sulfate], the “N-oxide metabolite in urine” value was “isolating morphine N-oxide from the urine of guinea pigs”.
